PubChem BioAssay AID1259308 | NCATS, 2017

Assay: 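Candidate targets for better recombinant protein yield in mammalian cells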 (primary screen)
Cell system: human HEK293 embryonic kidney cells stably expressing firefly luciferase (HEK-CMV-Luc2-Hygro)
Reagents: single siRNA against human genes, 0.8 pmol siRNA per well
Duration: 72 h
Measurement: 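Reporter luminescence and viable-cell signal on separate replicate plates, given as percent of non-targeting control and median/MAD z-scores, plus per-cell luciferase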
Reading the numbers: total luciferase, z-score: higher = more reporter protein produced
Hit rule: 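Active when the median/MAD z-score for overall luciferase is greater than 3; a gene was taken forward for validation with new siRNAs if at least two of its three siRNAs passed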
Calls: active = raised luciferase; inactive = no rise
The deposit covers about 59,000 reagents; shown is a random part of them. About 1,510 of all reagents (2.6%) count as active. 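Calls use total luciferase alone and ignore viability, so some active siRNAs may act by altering cell number.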 Unmarked entries are inactive. The numbers tell different reagents against one gene apart. Further read-outs or replicates are left out here. Reagent sequences are not shown.

RNF130 #1 gave total luciferase, z-score 0.386.
For RNF130 #2, the entry reads total luciferase, z-score 1.04.
RNF130 #3 scored total luciferase, z-score -0.423.
Silencing of DRD3 #1 gave: total luciferase, z-score 0.784.
DRD3 #2 gave total luciferase, z-score 0.351.
With knock-down of DRD3 #3 the results were total luciferase, z-score -0.373.
Against LZTS3 #1 the deposit lists total luciferase, z-score -0.808.
After knock-down of LZTS3 #2, the record shows total luciferase, z-score 0.823.
For LZTS3 #3 the deposit lists total luciferase, z-score -0.875.
Depletion of MAP1A #1 came out at: total luciferase, z-score 0.471.
After knock-down of MAP1A #2, the screen gave total luciferase, z-score -0.923.
Silencing of MAP1A #3 resulted in: total luciferase, z-score -2.11.
With knock-down of WDR1 #1 the results were total luciferase, z-score 2.6.
WDR1 #2 scored total luciferase, z-score 0.875.
After knock-down of WDR1 #3, the record shows total luciferase, z-score -0.588.
After knock-down of TMEM256 #1, the record shows total luciferase, z-score 1.1.
Depletion of TMEM256 #2 resulted in: total luciferase, z-score -0.0197.
For TMEM256 #3 the deposit lists total luciferase, z-score 2.57.

Look-ups from the entries so far.
LZTS3 #1, total luciferase, z-score = -0.808
Entry of TMEM256 #2 under “total luciferase, z-score”: -0.0197
Result of DRD3 #2 in “total luciferase, z-score”: 0.351
Entry of WDR1 #1 in “total luciferase, z-score”: 2.6
WDR1 #2, total luciferase, z-score → 0.875

Next entries follow:
Knock-down of OR52A4P #1 resulted in: total luciferase, z-score -0.0295.
For OR52A4P #2 the deposit lists total luciferase, z-score 1.5.
With knock-down of OR52A4P #3 the results were total luciferase, z-score 1.39.
Against PBXIP1 #1, the values are total luciferase, z-score -0.725.
Depletion of PBXIP1 #2 gave: total luciferase, z-score 1.76.
For PBXIP1 #3 the deposit lists total luciferase, z-score 3.9 (active).
With knock-down of SP100 #1, the record shows total luciferase, z-score 0.0103.
Knock-down of SP100 #2 resulted in: total luciferase, z-score -0.0668.
Depletion of SP100 #3 gave: total luciferase, z-score -0.667.
Silencing of SMC6 #1 came out at: total luciferase, z-score -0.0639.
Depletion of SMC6 #2 came out at: total luciferase, z-score -1.34.
Silencing of SMC6 #3 came out at: total luciferase, z-score -0.0841.
Silencing of TBC1D5 #1 came out at: total luciferase, z-score 1.99.
Against TBC1D5 #2 the deposit lists total luciferase, z-score 0.413.
Depletion of TBC1D5 #3 resulted in: total luciferase, z-score 1.27.
